Measurements reported in PubChem BioAssay AID743121 (NCATS, 2013)

- Test: 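Partners whose loss is lethal together with topoisomerase I blockade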 (primary screen)
- Cell system: MDA-MB-231 cells, a human breast cancer line
- Reagent: single siRNA against human genes, 20 nM siRNA (0.8 pmol per well)
- Timing: 120 h (drug added 48 h after transfection, read 72 h later)
- Treatment: camptothecin 20 nM (about EC30) for 72 h; vehicle 0.1% DMSO in parallel plates
- Detection: 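Cell viability by ATP luminescence (CellTiter-Glo) as % of non-targeting siRNA wells, and the log2 ratio of viability without drug over viability with camptothecin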
- Scale: log2 vehicle/camptothecin viability: higher = stronger sensitisation to camptothecin; viability with camptothecin and viability without drug: higher = more viable cells
- Hit rule: 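Active genes have an RSA gene-level p-value below 0.001, computed from the ratios of their separate siRNAs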
Shown is a random part of about 26,000 reagents. 167 of all reagents (0.63%) were called active. 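Calls are per gene from RSA p-values that are not deposited; an individual active-marked siRNA can sensitise only weakly.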 Reagents against one gene are numbered here.

gene knocked down,reagent,log2 vehicle/camptothecin viability,viability with camptothecin (% of control),viability without drug (% of control),activity call
KCNS2,1,0.139,78.5,86.5,inactive
KCNS2,2,-0.2,56.9,49.5,inactive
KCNS2,3,0.0769,93.4,98.5,inactive
KCNS2,4,-0.181,65.7,57.9,inactive
GPNMB,1,-0.339,68,53.8,inactive
GPNMB,2,0.177,44.7,50.6,inactive
GPNMB,3,-0.309,53.1,42.8,inactive
MECOM,1,0.369,53.9,69.5,inactive
MECOM,2,0.176,73.5,83,inactive
MECOM,3,-0.234,88,74.8,inactive
MECOM,4,-0.458,91.1,66.3,inactive

Targets listed so far whose target name begins with K or k (4):
gene knocked down,reagent,log2 vehicle/camptothecin viability,viability with camptothecin (% of control),viability without drug (% of control),activity call
KCNS2,1,0.139,78.5,86.5,inactive
KCNS2,2,-0.2,56.9,49.5,inactive
KCNS2,3,0.0769,93.4,98.5,inactive
KCNS2,4,-0.181,65.7,57.9,inactive

The results go on:
gene knocked down,reagent,log2 vehicle/camptothecin viability,viability with camptothecin (% of control),viability without drug (% of control),activity call
PLAU,1,-0.508,91,64,inactive
PLAU,2,-0.348,94.3,74,inactive
PLAU,3,0.385,56.9,74.4,inactive
PLAU,4,-0.436,70,51.7,inactive
TRIM25,1,-0.268,122,101,inactive
TRIM25,2,0.363,37.1,47.7,inactive
TRIM25,3,-0.32,31,24.9,inactive
TRIM25,4,-0.183,95.7,84.3,inactive
AMPD3,1,0.878,23.5,43.2,inactive
AMPD3,2,-0.114,105,96.8,inactive
AMPD3,3,-0.373,101,77.7,inactive
AMPD3,4,-0.274,92.4,76.4,inactive
SOCS3,1,-0.407,55.5,41.9,inactive
SOCS3,2,-0.168,87.4,77.8,inactive
SOCS3,3,-0.292,73.2,59.8,inactive
SOCS3,4,-0.408,22.9,17.2,inactive
KDR,1,-0.149,103,93.2,inactive
KDR,2,0.379,21.4,27.8,inactive
KDR,3,0.0716,111,117,inactive
KDR,4,-0.348,61.4,48.3,inactive
